US20150232546A1 (THROMBOGENICS, published 2015)
No constants are given. Whether binding was seen depends on the method and setting. Some entries that bind do so weakly or less than the wild type.

The chains behind the UniProt entries cited, without tags or fusion partners. Residues count along the entry.
UniProt Q9NRA1, residues 23-345: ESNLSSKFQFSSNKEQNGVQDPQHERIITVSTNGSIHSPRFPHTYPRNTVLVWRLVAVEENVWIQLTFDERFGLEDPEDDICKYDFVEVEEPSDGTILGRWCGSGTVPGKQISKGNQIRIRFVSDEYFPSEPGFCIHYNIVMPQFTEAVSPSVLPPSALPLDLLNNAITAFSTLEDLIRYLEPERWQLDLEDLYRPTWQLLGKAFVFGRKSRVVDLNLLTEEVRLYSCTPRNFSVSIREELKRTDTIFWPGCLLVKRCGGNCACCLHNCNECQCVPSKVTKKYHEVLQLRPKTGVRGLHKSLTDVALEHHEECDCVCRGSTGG

Columns and labels:
[1] = target: full-length human PDGF-C (Example 6) (human) (UniProt Q9NRA1); experiment: ELISA
[2] = target: T1, human PDGF-C peptide no. 28 (human); experiment: peptide ELISA
T1 sequence (peptide, N-terminally biotinylated): IHYNIVMPQFTEAVS

[3] = target: T2, human PDGF-C peptide no. 34 (human); experiment: peptide ELISA
T2 sequence (peptide, N-terminally biotinylated): NAITAFSTLEDLIRY

[4] = target: T3, human PDGF-C peptide no. 26 (human); experiment: peptide ELISA
T3 sequence (peptide, N-terminally biotinylated): EYFPSEPGFCIHYNI

[5] = target: T4, human PDGF-C peptide no. 8 (human); experiment: peptide ELISA
T4 sequence (peptide, N-terminally biotinylated): IHSPRFPHTYPRNTV

[6] = target: T5, human PDGF-C peptide no. 30 (human); experiment: peptide ELISA
T5 sequence (peptide, N-terminally biotinylated): TEAVSPSVLPPSALP

[7] = target: T6, human PDGF-C peptide no. 49 (human); experiment: peptide ELISA
T6 sequence (peptide, N-terminally biotinylated): LKRTDTIFWPGCLLV

[8] = target: T7, human PDGF-C peptide no. 27 (human); experiment: peptide ELISA
T7 peptide: Biotin-EPGFCIHYNIVMPQF

[9] = target: T8, human PDGF-C peptide no. 38 (human); experiment: peptide ELISA
T8 sequence (peptide, N-terminally biotinylated): WQLDLEDLYRPTWQL

[10] = target: T9, human PDGF-C peptide no. 10 (human); experiment: peptide ELISA
T9 sequence (peptide, N-terminally biotinylated): PRNTVLVWRLVAVEE

[11] = target: T10, human PDGF-C peptide no. 22 (human); experiment: peptide ELISA
T10 sequence (peptide, N-terminally biotinylated): TVPGKQISKGNQIRI

[12] = target: T11, human PDGF-C peptide no. 39 (human); experiment: peptide ELISA
T11 sequence (peptide, N-terminally biotinylated): EDLYRPTWQLLGKAF

[13] = target: T12, human PDGF-C peptide no. 55 (human); experiment: peptide ELISA
T12 sequence (peptide, N-terminally biotinylated): ECQCVPSKVTKKYHE

[14] = target: T13, human PDGF-C peptide no. 25 (human); experiment: peptide ELISA
T13 sequence (peptide, N-terminally biotinylated): RFVSDEYFPSEPGFC

[15] = target: T14, human PDGF-C peptide no. 18 (human); experiment: peptide ELISA
T14 sequence (peptide, N-terminally biotinylated): FVEVEEPSDGTILGR

[16] = target: T15, human PDGF-C peptide no. 56 (human); experiment: peptide ELISA
T15 sequence (peptide, N-terminally biotinylated): PSKVTKKYHEVLQLR

[17] = target: T16, human PDGF-C peptide no. 50 (human); experiment: peptide ELISA
T16 sequence (peptide, N-terminally biotinylated): TIFWPGCLLVKRCGG

[18] = target: T17, human PDGF-C peptide no. 54 (human); experiment: peptide ELISA
T17 sequence (peptide, N-terminally biotinylated): LHNCNECQCVPSKVT

[19] = target: T18, human PDGF-C peptide no. 13 (human); experiment: peptide ELISA
T18 sequence (peptide, N-terminally biotinylated): NVWIQLTFDERFGLE

[20] = target: T19, human PDGF-C peptide no. 44 (human); experiment: peptide ELISA
T19 sequence (peptide, N-terminally biotinylated): LNLLTEEVRLYSCTP

[21] = target: T20, human PDGF-C peptide no. 17 (human); experiment: peptide ELISA
T20 sequence (peptide, N-terminally biotinylated): ICKYDFVEVEEPSDG

[22] = target: T21, human PDGF-C peptide no. 43 (human); experiment: peptide ELISA
T21 sequence (peptide, N-terminally biotinylated): SRVVDLNLLTEEVRL

[23] = target: T22, human PDGF-C peptide no. 32 (human); experiment: peptide ELISA
T22 sequence (peptide, N-terminally biotinylated): PSALPLDLLNNAITA

[24] = target: T23, human PDGF-C peptide no. 59 (human); experiment: peptide ELISA
T23 sequence (peptide, N-terminally biotinylated): PKTGVRGLHKSLTDV

[25] = target: T24, human PDGF-C peptide no. 48 (human); experiment: peptide ELISA
T24 sequence (peptide, N-terminally biotinylated): SIREELKRTDTIFWP

[26] = target: T25, human PDGF-C peptide no. 12 (human); experiment: peptide ELISA
T25 sequence (peptide, N-terminally biotinylated): VAVEENVWIQLTFDE

[27] = target: T26, human PDGF-C peptide no. 35 (human); experiment: peptide ELISA
T26 sequence (peptide, N-terminally biotinylated): FSTLEDLIRYLEPER

[28] = target: T27, human PDGF-C peptide no. 29 (human); experiment: peptide ELISA
T27 sequence (peptide, N-terminally biotinylated): VMPQFTEAVSPSVLP

[29] = target: T28, human PDGF-C peptide no. 37 (human); experiment: peptide ELISA
T28 sequence (peptide, N-terminally biotinylated): LEPERWQLDLEDLYR

[30] = target: T29, human PDGF-C peptide no. 23 (human); experiment: peptide ELISA
T29 sequence (peptide, N-terminally biotinylated): QISKGNQIRIRFVSD

[31] = target: T30, human PDGF-C peptide no. 21 (human); experiment: peptide ELISA
T30 sequence (peptide, N-terminally biotinylated): WCGSGTVPGKQISKG

[32] = target: T31, human PDGF-C peptide no. 1 (human); experiment: peptide ELISA
T31 sequence (peptide, N-terminally biotinylated): ESNLSSKFQFSSNKE

[33] = target: T32, human PDGF-C peptide no. 57 (human); experiment: peptide ELISA
T32 sequence (peptide, N-terminally biotinylated): KKYHEVLQLRPKTGV

[34] = target: T33, human PDGF-C peptide no. 16 (human); experiment: peptide ELISA
T33 sequence (peptide, N-terminally biotinylated): DPEDDICKYDFVEVE

[35] = target: T34, human PDGF-C peptide no. 62 (human); experiment: peptide ELISA
T34 sequence (peptide, N-terminally biotinylated): ALEHHEECDCVCRGS

[36] = target: T35, human PDGF-C peptide no. 2 (human); experiment: peptide ELISA
T35 sequence (peptide, N-terminally biotinylated): SKFQFSSNKEQNGVQ

[37] = target: T36, human PDGF-C peptide no. 41 (human); experiment: peptide ELISA
T36 sequence (peptide, N-terminally biotinylated): LGKAFVFGRKSRVVD

[38] = target: T37, human PDGF-C peptide no. 6 (human); experiment: peptide ELISA
T37 sequence (peptide, N-terminally biotinylated): RIITVSTNGSIHSPR

[39] = target: T38, human PDGF-C peptide no. 4 (human); experiment: peptide ELISA
T38 sequence (peptide, N-terminally biotinylated): QNGVQDPQHERIITV

[40] = target: T39, human PDGF-C peptide no. 14 (human); experiment: peptide ELISA
T39 sequence (peptide, N-terminally biotinylated): LTFDERFGLEDPEDD

[41] = target: T40, human PDGF-C peptide no. 63 (human); experiment: peptide ELISA
T40 sequence (peptide, N-terminally biotinylated): EECDCVCRGSTGG

[42] = target: T41, human PDGF-C peptide no. 15 (human); experiment: peptide ELISA
T41 sequence (peptide, N-terminally biotinylated): RFGLEDPEDDICKYD

[43] = target: T42, human PDGF-C peptide no. 36 (human); experiment: peptide ELISA
T42 sequence (peptide, N-terminally biotinylated): DLIRYLEPERWQLDL

[44] = target: T43, human PDGF-C peptide no. 5 (human); experiment: peptide ELISA
T43 sequence (peptide, N-terminally biotinylated): DPQHERIITVSTNGS

[45] = target: T44, human PDGF-C peptide no. 60 (human); experiment: peptide ELISA
T44 sequence (peptide, N-terminally biotinylated): RGLHKSLTDVALEHH

[46] = target: T45, human PDGF-C peptide no. 33 (human); experiment: peptide ELISA
T45 sequence (peptide, N-terminally biotinylated): LDLLNNAITAFSTLE

[47] = target: T46, human PDGF-C peptide no. 53 (human); experiment: peptide ELISA
T46 sequence (peptide, N-terminally biotinylated): NCACCLHNCNECQCV

[48] = target: T47, human PDGF-C peptide no. 46 (human); experiment: peptide ELISA
T47 sequence (peptide, N-terminally biotinylated): YSCTPRNFSVSIREE

Measured: binding

B1: anti-PDGF-C antibody 5H7 (antibody, IgG1, V domains shown)
VH: EVQLVESGGDLVKPGGSLKLSCAASGFTFSSYGMSWVRQTPDKRLEWVATIGYGGSFTYYPDSMKGRFTISRDNAKNTLFLQMSSLKSEDTAIYYCVRQAPLWDYFDYWGQGTTLTVSS
VL: DVLMTQTPLSLPVSLGDQASISCRSSQTIVHSDGTTYLEWYLQKAGQSPKLLIYKVSNRFSGVPDRFSGSGSGTDFTLKISRVEAEDLGVYYCFQGSHVPPTFGGGTKLEIK
notes: Mouse monoclonal from hybridoma, IgG1, kappa; also called mAb 5H7; hybridoma LMBP 9485CB
binds: [1]
no binding (tested: 1 µg/mL): all other assays above
